Laboratory results: article PMC9008698
These are yes or no findings as the source states them, for the method shown. Binding seen in cells or lysates may run through a third protein. Some results given as binding are weak or reduced against the parent protein; the word gives no strength.

Sequences of proteins named here, by UniProt entry; tags and fusion partners are left off.
UniProt P51617: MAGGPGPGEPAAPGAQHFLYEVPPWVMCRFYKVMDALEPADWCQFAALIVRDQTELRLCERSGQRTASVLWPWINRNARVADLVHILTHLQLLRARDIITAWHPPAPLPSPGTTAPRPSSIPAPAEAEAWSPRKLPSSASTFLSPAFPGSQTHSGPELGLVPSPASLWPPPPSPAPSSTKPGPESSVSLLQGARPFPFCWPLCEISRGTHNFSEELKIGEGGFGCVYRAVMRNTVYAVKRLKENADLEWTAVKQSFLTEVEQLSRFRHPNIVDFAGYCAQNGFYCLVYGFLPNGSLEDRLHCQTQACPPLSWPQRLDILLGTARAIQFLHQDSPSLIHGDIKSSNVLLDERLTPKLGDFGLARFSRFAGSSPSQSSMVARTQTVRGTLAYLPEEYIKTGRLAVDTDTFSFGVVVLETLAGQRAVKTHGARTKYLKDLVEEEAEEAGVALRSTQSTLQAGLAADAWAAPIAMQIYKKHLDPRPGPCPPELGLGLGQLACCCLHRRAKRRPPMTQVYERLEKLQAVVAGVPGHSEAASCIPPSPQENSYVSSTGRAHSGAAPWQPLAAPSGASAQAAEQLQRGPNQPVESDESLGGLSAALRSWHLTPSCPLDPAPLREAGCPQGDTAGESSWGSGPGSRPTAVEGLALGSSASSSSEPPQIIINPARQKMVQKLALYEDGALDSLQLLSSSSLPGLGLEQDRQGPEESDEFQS

T1: TRAF6-C (C-terminal TRAF domain; residues 262–522) (UniProt Q9Y4K3)
T1 sequence: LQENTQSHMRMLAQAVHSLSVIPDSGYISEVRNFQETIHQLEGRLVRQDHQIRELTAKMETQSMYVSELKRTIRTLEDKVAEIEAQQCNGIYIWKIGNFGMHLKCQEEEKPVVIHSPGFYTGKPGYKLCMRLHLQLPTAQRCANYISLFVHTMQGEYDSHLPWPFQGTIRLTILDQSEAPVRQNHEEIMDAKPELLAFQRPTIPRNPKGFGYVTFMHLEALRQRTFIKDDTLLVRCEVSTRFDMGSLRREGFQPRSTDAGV

T2: TRADD (overexpressed) (UniProt Q15628)
T2 sequence: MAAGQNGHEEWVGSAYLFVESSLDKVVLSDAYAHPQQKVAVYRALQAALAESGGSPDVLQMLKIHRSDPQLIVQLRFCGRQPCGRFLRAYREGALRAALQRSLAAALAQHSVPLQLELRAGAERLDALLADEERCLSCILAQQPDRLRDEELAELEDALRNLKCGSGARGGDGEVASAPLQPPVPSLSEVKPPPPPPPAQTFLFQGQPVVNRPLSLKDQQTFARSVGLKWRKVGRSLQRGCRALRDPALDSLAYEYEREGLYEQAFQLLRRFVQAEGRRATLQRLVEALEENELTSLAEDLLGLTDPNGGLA

T3: TRAF2 (full length, overexpressed) (UniProt Q12933)
T3 sequence: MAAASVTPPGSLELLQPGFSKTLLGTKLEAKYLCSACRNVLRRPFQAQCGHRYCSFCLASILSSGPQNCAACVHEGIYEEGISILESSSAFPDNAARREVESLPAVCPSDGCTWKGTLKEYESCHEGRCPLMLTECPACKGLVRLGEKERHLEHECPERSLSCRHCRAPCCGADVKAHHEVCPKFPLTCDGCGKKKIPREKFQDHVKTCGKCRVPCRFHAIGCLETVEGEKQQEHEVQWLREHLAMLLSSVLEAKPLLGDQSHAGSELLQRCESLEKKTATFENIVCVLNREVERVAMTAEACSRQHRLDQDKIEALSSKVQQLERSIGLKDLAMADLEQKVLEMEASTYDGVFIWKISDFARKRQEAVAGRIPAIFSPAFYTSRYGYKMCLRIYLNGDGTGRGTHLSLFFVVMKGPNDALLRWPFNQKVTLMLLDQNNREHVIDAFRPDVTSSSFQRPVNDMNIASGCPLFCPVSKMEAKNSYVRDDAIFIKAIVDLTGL


What was measured:
Assay in all cases: co-IP; HEK293T cells co-transfected with both partners; lysis in 0.5% Triton X-100, 20 mM Tris-HCl pH 7.5, 150 mM NaCl, 10% glycerol, 1 mM EDTA; anti-Flag agarose or anti-HA magnetic beads 4 h at 4°C; washes with 300 mM NaCl; immunoblotting
[1] = biological target: T1, TRAF6-C (C-terminal TRAF domain; residues 262–522)
TRADD (overexpressed) = biological target: T2, TRADD (overexpressed)
[2] = biological target: T3, TRAF2 (full length, overexpressed)

binding [2] | Molecule | other results
 | IRAK1 (overexpressed) (from UniProt P51617 1-712) | binding [1]: binds
 | TRAF2-C (C-terminal TRAF domain; residues 272–501) (domain or fragment, UniProt Q12933 272-501) CESLEKKTATFENIVCVLNREVERVAMTAEACSRQHRLDQDKIEALSSKVQQLERSIGLKDLAMADLEQKVLEMEASTYDGVFIWKISDFARKRQEAVAGRIPAIFSPAFYTSRYGYKMCLRIYLNGDGTGRGTHLSLFFVVMKGPNDALLRWPFNQKVTLMLLDQNNREHVIDAFRPDVTSSSFQRPVNDMNIASGCPLFCPVSKMEAKNSYVRDDAIFIKAIVDLTGL | binding (TRADD (overexpressed)): binds
no binding | KIZ-N (residues 1–220) (domain or fragment, UniProt Q2M2Z5 1-220) MSRTLASAVPLSSPDYYERLGQLQHGLRDSEKKRLDLEKKLYEYNQSDTCRVKLKYVKLKNYLKEICESEKKAHTRNQEYLKRFERVQAHVVHFTTNTEKLQKLKLEYETQIKKMLCSKDSLGLKEELTDEDREKVAVHEGINSGTAMSRGLYQPATIFMGRQMSAILSMRDFSTEHKSPQPTKNFSIPDPHSHRQTAQSSNVTDSCVVQTSNDTQCLNK | 
no binding | KIZ-C (residues 441–674) (domain or fragment, UniProt Q2M2Z5 441-673) KESSTNAPTREPGQTPDSDVPRAQVGQHVATLKEHDNSVKEEATALLRKALTEECGRRSAIHSSESSCSLPSILNDNSGIKEAKPAVWLNSVPTREQEVSSGCGDKSKKENVAADIPITETEAYQLLKKATLQDNTNQTENRFQKTDASVSHLSGLNIGSGAFETKTANKIASEASFSSSEGSPLSRHENKKKPVINLKSNALWDESDDSNSEIEAALRPRNHNTDDSDDFYD | 
binds | KIZ-Center (residues 221–440) (domain or fragment, UniProt Q2M2Z5 221-440) SDNIDGKASLQIGEKMPVTASVLSEEEQTHCLEIGSNTRHGKSNLSEGKKSAELNSPLRERLSPENRTTDLKCDSSSGSEGEILTREHIEVEEKRASPPVSPIPVSEYCESENKWSQEKHSPWEGVSDHLAHREPKSQKPFRKMQEEEEESWSTSSDLTISISEDDLILESPEPQPNPGGKMEGEDGIEALKLIHAEQERVALSTEKNCILQTLSSPDSE | 
